These results are taken from US6730302.

This test has as its target T1, endogenous NF-kB p65 subunit of 70Z/3 cells (mouse), Q04207.
T1 chain: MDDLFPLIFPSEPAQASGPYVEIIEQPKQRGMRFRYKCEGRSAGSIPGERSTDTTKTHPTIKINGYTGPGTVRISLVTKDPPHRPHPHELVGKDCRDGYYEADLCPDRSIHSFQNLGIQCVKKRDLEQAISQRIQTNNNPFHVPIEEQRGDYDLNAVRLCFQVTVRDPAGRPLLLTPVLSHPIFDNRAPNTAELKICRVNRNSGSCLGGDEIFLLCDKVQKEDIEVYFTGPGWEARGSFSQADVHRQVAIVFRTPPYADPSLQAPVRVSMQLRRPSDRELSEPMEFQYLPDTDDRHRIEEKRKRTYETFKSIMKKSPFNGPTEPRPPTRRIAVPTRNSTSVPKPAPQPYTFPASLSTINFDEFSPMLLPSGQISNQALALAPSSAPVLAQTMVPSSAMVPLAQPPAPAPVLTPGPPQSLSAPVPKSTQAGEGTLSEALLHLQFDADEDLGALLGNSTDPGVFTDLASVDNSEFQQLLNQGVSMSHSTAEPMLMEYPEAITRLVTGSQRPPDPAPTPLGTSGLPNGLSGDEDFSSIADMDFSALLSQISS
The test can be described thus: EMSA supershift, nuclear extracts of LPS-treated 70Z/3 cells. The conditions noted are these: remark: other sources report otherwise.

Results are given in words; binding and its absence hold for the method and conditions named. Some results given as binding are weak or reduced against the parent protein; the word gives no strength.

B1: endogenous NF-kB p50 subunit of LPS-treated 70Z/3 cells, P25799 1-431 (protein, mouse, UniProt P25799 1-431, looked up)
chain: MADDDPYGTGQMFHLNTALTHSIFNAELYSPEIPLSTDGPYLQILEQPKQRGFRFRYVCEGPSHGGLPGASSEKNKKSYPQVKICNYVGPAKVIVQLVTNGKNIHLHAHSLVGKHCEDGVCTVTAGPKDMVVGFANLGILHVTKKKVFETLEARMTEACIRGYNPGLLVHSDLAYLQAEGGGDRQLTDREKEIIRQAAVQQTKEMDLSVVRLMFTAFLPDSTGSFTRRLEPVVSDAIYDSKAPNASNLKIVRMDRTAGCVTGGEEIYLLCDKVQKDDIQIRFYEEEENGGVWEGFGDFSPTDVHRQFAIVFKTPKYKDVNITKPASVFVQLRRKSDLETSEPKPFLYYPEIKDKEEVQRKRQKLMPNFSDSFGGGSGAGAGGGGMFGSGGGGGSTGSPGPGYGYSNYGFPPYGGITFHPGVTKSNAGVTHG
B1: the binding entry is “binds”.
